# Measurements from the supplement of paper PMC4604168 (melanoma cell lines).
# Some of the results follow. Many values rest on one well or one pass, so single values are uncertain.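 Cells were imaged in 1,536-well plates, and nuclei stained with an antibody against cleaved PARP were counted against all DNA-stained nuclei to give the apoptosis fraction. Screening doses were chosen to leave most cells alive, and resting and induced cleaved-PARP levels differ strongly between cell lines.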
# Test system: IST-MEL1
# Assay: cleaved PARP positive nuclei fraction relative to DMSO control; melanoma cells; higher = more apoptosis
# Conditions: library dose: low library concentration; 72 h
row,SMILES,cleaved PARP positive nuclei fraction [%]
1,"COc1ccc(C2=N[C@@H](c3ccc(Cl)cc3)[C@@H](c3ccc(Cl)cc3)N2C(=O)N2CCNC(=O)C2)c(OC(C)C)c1 [Nutlin-3] + C=CCn1c(=O)c2cnc(Nc3ccc(N4CCN(C)CC4)cc3)nc2n1-c1cccc(C(C)(C)O)n1 [MK1775] (first compound 0.1 µM, partner dose 0.02 µM)",156
2,"Cn1sc(=O)n(Cc2ccccc2)c1=O + CO[C@@H]1[C@H](N(C)C(=O)c2ccccc2)C[C@H]2O[C@]1(C)n1c3ccccc3c3c4c(c5c6ccccc6n2c5c31)C(=O)NC4 [Midostaurin] (first compound 0.4 µM, partner dose 0.08 µM)",72.1
3,"Cn1cnc2c(F)c(Nc3ccc(Br)cc3Cl)c(C(=O)NOCCO)cc21 [selumetinib] + Cc1cc(N2CCOCC2)cc2[nH]c(-c3c(NC[C@@H](O)c4cccc(Cl)c4)cc[nH]c3=O)nc12 [BMS536924] (first compound 0.015 µM, partner dose 0.2 µM)",36.2
4,"CC(=O)O[C@@]12CO[C@@H]1C[C@H](O)[C@@]1(C)C(=O)[C@H](O)C3=C(C)[C@@H](OC(=O)[C@H](O)[C@@H](NC(=O)OC(C)(C)C)c4ccccc4)C[C@@](O)([C@@H](OC(=O)c4ccccc4)[C@H]21)C3(C)C [Docetaxel] + O=C(CCCCCCC(=O)Nc1ccccc1)NO [vorinostat] (first compound 0.0001 µM, partner dose 0.08 µM)",319
5,"C[C@]1(O)C[C@@H](c2nc(-c3ccc4ccc(-c5ccccc5)nc4c3)c3c(N)nccn32)C1 + CO[C@@H]1[C@H](N(C)C(=O)c2ccccc2)C[C@H]2O[C@]1(C)n1c3ccccc3c3c4c(c5c6ccccc6n2c5c31)C(=O)NC4 [Midostaurin] (first compound 0.4 µM, partner dose 0.08 µM)",79.9
6,"CS(=O)(=O)c1ccc(C(=O)Nc2ccc(Cl)c(-c3ccccn3)c2)c(Cl)c1 [vismodegib] + NC(=O)Nc1cc(-c2cccc(F)c2)sc1C(=O)N[C@H]1CCCNC1 [AZD7762] (first compound 1 µM, partner dose 0.02 µM)",28.8
7,"CC(=O)O[C@@]12CO[C@@H]1C[C@H](O)[C@@]1(C)C(=O)[C@H](O)C3=C(C)[C@@H](OC(=O)[C@H](O)[C@@H](NC(=O)OC(C)(C)C)c4ccccc4)C[C@@](O)([C@@H](OC(=O)c4ccccc4)[C@H]21)C3(C)C [Docetaxel] + CO[C@@H]1[C@H](N(C)C(=O)c2ccccc2)C[C@H]2O[C@]1(C)n1c3ccccc3c3c4c(c5c6ccccc6n2c5c31)C(=O)NC4 [Midostaurin] (first compound 0.0001 µM, partner dose 0.08 µM)",202
8,"CC(=O)O[C@@]12CO[C@@H]1C[C@H](O)[C@@]1(C)C(=O)[C@H](O)C3=C(C)[C@@H](OC(=O)[C@H](O)[C@@H](NC(=O)OC(C)(C)C)c4ccccc4)C[C@@](O)([C@@H](OC(=O)c4ccccc4)[C@H]21)C3(C)C [Docetaxel] + Cc1ccc(NC(=O)c2cccc(N(C)C)c2)cc1NC(=O)c1ccc(O)cc1 [ZM336372] (first compound 0.0001 µM, partner dose 2 µM)",185
9,"Cn1sc(=O)n(Cc2ccccc2)c1=O + NC(=O)Nc1cc(-c2cccc(F)c2)sc1C(=O)N[C@H]1CCCNC1 [AZD7762] (first compound 0.4 µM, partner dose 0.02 µM)",68.9
10,"C[C@@H](N)c1ccc(C(=O)Nc2ccnc3[nH]ccc23)cc1 + O=C(O)c1ccc(-c2c[nH]c3ncc(-c4ccccc4)cc23)cc1C1CCCC1 [GSK650394] (first compound 0.4 µM, partner dose 0.16 µM)",84.1
11,"NC1(c2ccc(-c3nc4ccn5c(=O)[nH]nc5c4cc3-c3ccccc3)cc2)CCC1 + NC(=O)Nc1cc(-c2cccc(F)c2)sc1C(=O)N[C@H]1CCCNC1 [AZD7762] (first compound 0.4 µM, partner dose 0.02 µM)",87
12,"COc1ccc(C2=N[C@@H](c3ccc(Cl)cc3)[C@@H](c3ccc(Cl)cc3)N2C(=O)N2CCNC(=O)C2)c(OC(C)C)c1 [Nutlin-3] + COc1cc2c(Oc3ccc4[nH]c(C)cc4c3F)ncnc2cc1OCCCN1CCCC1 [cediranib] (first compound 0.1 µM, partner dose 0.4 µM)",71.6
13,"Cn1cnc2c(F)c(Nc3ccc(Br)cc3Cl)c(C(=O)NOCCO)cc21 [selumetinib] + CC1(C)NC(=O)N(c2ccc([N+](=O)[O-])c(C(F)(F)F)c2)C1=O [nilutamide] (first compound 0.015 µM, partner dose 1 µM)",73.2
14,"NC(=O)c1ccc(N(C(N)=O)c2c(F)cccc2F)nc1-c1ccc(F)cc1F + Cc1ccc(NC(=O)c2cccc(N(C)C)c2)cc1NC(=O)c1ccc(O)cc1 [ZM336372] (first compound 0.4 µM, partner dose 2 µM)",102
15,"CC1(C)CCC(c2ccc(Cl)cc2)=C(CN2CCN(c3ccc(C(=O)NS(=O)(=O)c4ccc(N[C@H](CCN5CCOCC5)CSc5ccccc5)c(S(=O)(=O)C(F)(F)F)c4)cc3)CC2)C1 + CN(NC(=O)CC(=O)NN(C)C(=S)c1ccccc1)C(=S)c1ccccc1 [STA4783] (first compound 0.4 µM, partner dose 0.006 µM)",356
16,"Cn1cnc2c(F)c(Nc3ccc(Br)cc3Cl)c(C(=O)NOCCO)cc21 [selumetinib] + NCC(=O)Nc1ccc(-n2nc(C(F)(F)F)cc2-c2ccc3c(ccc4ccccc43)c2)cc1 [OSU03012] (first compound 0.015 µM, partner dose 1 µM)",408
17,"CC1(C)CCC(c2ccc(Cl)cc2)=C(CN2CCN(c3ccc(C(=O)NS(=O)(=O)c4ccc(N[C@H](CCN5CCOCC5)CSc5ccccc5)c(S(=O)(=O)C(F)(F)F)c4)cc3)CC2)C1 + CC1(C)NC(=O)N(c2ccc([N+](=O)[O-])c(C(F)(F)F)c2)C1=O [nilutamide] (first compound 0.4 µM, partner dose 1 µM)",52.8
18,"CC1(C)CCC(c2ccc(Cl)cc2)=C(CN2CCN(c3ccc(C(=O)NS(=O)(=O)c4ccc(N[C@H](CCN5CCOCC5)CSc5ccccc5)c(S(=O)(=O)C(F)(F)F)c4)cc3)CC2)C1 + COc1cc(Nc2ncc(F)c(Nc3ccc4c(n3)NC(=O)C(C)(C)O4)n2)cc(OC)c1OC [Tamatinib] (first compound 0.4 µM, partner dose 0.4 µM)",158
19,"CCCCCCCCc1ccc(CCC(N)(CO)CO)cc1 [fingolimod] + OCCn1cc(-c2cnc3nnn(Cc4ccc5ncccc5c4)c3n2)cn1 [PF04217903] (first compound 2 µM, partner dose 1 µM)",93.4
20,"C[C@]1(O)C[C@@H](c2nc(-c3ccc4ccc(-c5ccccc5)nc4c3)c3c(N)nccn32)C1 + COc1cc(Nc2ncc(F)c(Nc3ccc4c(n3)NC(=O)C(C)(C)O4)n2)cc(OC)c1OC [Tamatinib] (first compound 0.4 µM, partner dose 0.4 µM)",126
21,"CCN(CC)CCNC(=O)c1c(C)[nH]c(/C=C2\C(=O)Nc3ccc(F)cc32)c1C [sunitinib] + O=C(Nc1cccc(Cl)c1)Nc1ncc(CCNc2ncnc3ccsc23)s1 [SNS314] (first compound 0.4 µM, partner dose 0.0008 µM)",62.8
22,"NC1(c2ccc(-c3nc4ccn5c(=O)[nH]nc5c4cc3-c3ccccc3)cc2)CCC1 + O=C(Nc1cccc(Cl)c1)Nc1ncc(CCNc2ncnc3ccsc23)s1 [SNS314] (first compound 0.4 µM, partner dose 0.0008 µM)",266
23,"C[C@@H](N)c1ccc(C(=O)Nc2ccnc3[nH]ccc23)cc1 + C[C@@H]1CCN(C(=O)CC#N)C[C@@H]1N(C)c1ncnc2[nH]ccc12 [CP690550] (first compound 0.4 µM, partner dose 1 µM)",44.2
24,"CN(c1ncccc1CNc1nc(Nc2ccc3c(c2)CC(=O)N3)ncc1C(F)(F)F)S(C)(=O)=O + NC(=O)Nc1cc(-c2cccc(F)c2)sc1C(=O)N[C@H]1CCCNC1 [AZD7762] (first compound 0.08 µM, partner dose 0.02 µM)",48.6
25,"C[C@@H](N)c1ccc(C(=O)Nc2ccnc3[nH]ccc23)cc1 + Cc1cc(N2CCOCC2)cc2[nH]c(-c3c(NC[C@@H](O)c4cccc(Cl)c4)cc[nH]c3=O)nc12 [BMS536924] (first compound 0.4 µM, partner dose 0.2 µM)",108
26,"NC1(c2ccc(-c3nc4ccn5c(=O)[nH]nc5c4cc3-c3ccccc3)cc2)CCC1 + CC(C)(C)c1cnc(CSc2cnc(NC(=O)C3CCNCC3)s2)o1 [SNS-032] (first compound 0.4 µM, partner dose 0.01 µM)",255
27,"C[C@]1(O)C[C@@H](c2nc(-c3ccc4ccc(-c5ccccc5)nc4c3)c3c(N)nccn32)C1 + NC(=O)Nc1cc(-c2cccc(F)c2)sc1C(=O)N[C@H]1CCCNC1 [AZD7762] (first compound 0.4 µM, partner dose 0.02 µM)",26.9
28,"CCN(CC)CCNC(=O)c1c(C)[nH]c(/C=C2\C(=O)Nc3ccc(F)cc32)c1C [sunitinib] + C=CCn1c(=O)c2cnc(Nc3ccc(N4CCN(C)CC4)cc3)nc2n1-c1cccc(C(C)(C)O)n1 [MK1775] (first compound 0.4 µM, partner dose 0.02 µM)",51.8

# Shown as tab-separated lines: entries from further up.
row	SMILES	cleaved PARP positive nuclei fraction [%]
10	C[C@@H](N)c1ccc(C(=O)Nc2ccnc3[nH]ccc23)cc1 + O=C(O)c1ccc(-c2c[nH]c3ncc(-c4ccccc4)cc23)cc1C1CCCC1 [GSK650394] (first compound 0.4 µM, partner dose 0.16 µM)	84.1
26	NC1(c2ccc(-c3nc4ccn5c(=O)[nH]nc5c4cc3-c3ccccc3)cc2)CCC1 + CC(C)(C)c1cnc(CSc2cnc(NC(=O)C3CCNCC3)s2)o1 [SNS-032] (first compound 0.4 µM, partner dose 0.01 µM)	255
